Results reported in PubChem BioAssay AID2685 (National Center for Advancing Translational Sciences (NCATS), 2010).
The list shows a part of the results. These are further read-outs of the screen, such as a control signal, another cell line or another target. No call is given for them. Compounds called inactive in the main read-out are mostly missing here. The note in brackets gives the kind of curve behind each potency; many fits are weak.

Assay: qHTS Assay for Lipid Storage Modulators in Drosophila S3 Cells;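 as to cell number change: cells counted by Cell Tracker Red CMTPX staining in the red channel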
Settings: BODIPY lipid droplet fluorescence, 18-24 h; for cell number change: measured here: cell count max response, cells fed with added oleic acid
Procedure, shortened: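 Drosophila S3 cells got compounds at several concentrations plus oleic acid (400 uM solution). Laser-scanning cytometry with 488 nm excitation read lipid droplets at 500-530 nm and cells at 575-640 nm. Percent activity was relative to 20 uM Triacsin C.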

[1] = measured here: lipid fluorescence (Fed channel) AC50, cells fed with added oleic acid
[2] = measured here: cell number channel AC50, cells fed with added oleic acid

Row | SMILES | cell number change | AC50 [1] | AC50 [2]
1 | Cc1ccc(NC(=S)N2CCC(NC(=O)c3ccc(C)cc3)CC2)cc1 | 10.3% | 29100 nM [rising, single point] | 
2 | O=C(C/C=N\O)Nc1ccc(Oc2ccccc2)cc1 | -42.2% | 18400 nM [falling, single point] | 
3 | CCn1c(C)cc(/C=C2\NC(=O)N(Cc3ccccc3)C2=O)c1C |  | 2910 nM [rising, partial curve] | 580 nM [rising, single point]
4 | COc1ccc(-c2cc(C(=O)Nc3c(C)nn(Cc4ccccc4Cl)c3C)no2)cc1 | -1.59% | 231 nM [rising, full curve, poor fit] | 
5 | O=C(O)CC/C(=N\Nc1ccccc1[N+](=O)[O-])c1cccs1 | -61.3% | 4.61 nM [rising, full curve, poor fit] | 
6 | CCC1NC(=O)c2cc(S(N)(=O)=O)c(Cl)cc2N1 (configuration not stated) | -25.4% | 18400 nM [falling, partial curve] | 
7 | CC(C)CNS(=O)(=O)c1cc(C(=O)O)c(Cl)cc1Cl | -37.7% | 18400 nM [falling, single point] | 
8 | Cc1ccc(S(=O)(=O)Nc2cc(=O)[nH]c(SCC(=O)Nc3ccccc3Cl)n2)cc1 | 10.4% | 4.61 nM [rising, full curve, poor fit] | 
9 | Cc1cc(NC(=O)CCSc2nc(-c3ccco3)cc(C(F)(F)F)n2)no1 | 12.6% | 1030 nM [rising, full curve] | 
10 | CCN(CC)CCCNC(=S)N1CCN(c2nc(-c3ccccc3)cs2)CC1 | -27.5% | 5170 nM [falling, partial curve, poor fit] | 
11 | CCOC(=O)CSc1n[nH]c(NC(=O)NC(C)C)n1 |  | 2060 nM [falling, partial curve] | 461 nM [falling, full curve, poor fit]
12 | CCOC(=O)c1c(-c2ccccc2)csc1NC(=O)CSc1nnc(C)s1 | -1.23% | 2590 nM [rising, full curve, poor fit] | 
13 | COc1ccccc1CN1CCC(CNS(=O)(=O)c2cc(-c3onc(C)c3C)ccc2OC)CC1 | 13.4% | 731 nM [rising, full curve] | 
14 | C=CCN(c1ccccc1Cl)S(=O)(=O)c1cccc(C(=O)OCC(=O)N(C)C2CCS(=O)(=O)C2)c1 (configuration not stated) | -1.76% | 6510 nM [falling, single point] | 
15 | Cc1cc(C(=O)CSc2ncccn2)c(C)n1Cc1ccco1 | 20% |  | 1640 nM [rising, partial curve, poor fit]
16 | CC(C)NC(=O)c1cc2n(n1)C(C(F)(F)F)CC(c1ccco1)N2 (configuration not stated) | -35.4% |  | 29100 nM [falling, single point]

Some of the entries above in another layout.
Row	SMILES	cell number change	AC50 [1]	AC50 [2]
7	CC(C)CNS(=O)(=O)c1cc(C(=O)O)c(Cl)cc1Cl	-37.7%	18400 nM [falling, single point]	
8	Cc1ccc(S(=O)(=O)Nc2cc(=O)[nH]c(SCC(=O)Nc3ccccc3Cl)n2)cc1	10.4%	4.61 nM [rising, full curve, poor fit]	
